According to PubChem BioAssay AID488837 (National Center for Advancing Translational Sciences (NCATS), 2010):
The whole screen tested about 330,000 compounds, of which about 20 (0.006%) were called active. Inconclusive results, whose numbers are uncertain, are shown with a selection of clear calls. Calls follow the shape of the dose curve; as a rule, active = well fitted inhibition curve with a large enough effect; inconclusive = small, poorly fitted or top-dose-only effect, or effect the other way; inactive = flat fitted curve, though single readings scatter. A potency beside an inconclusive call is a rough fit, not a confirmed value.

By UniProt entry, the sequences of proteins in these tests, tags left out. Where a name states a change or a piece, a line headed by the entry shows the natural chain unless it says otherwise.
UniProt O00167: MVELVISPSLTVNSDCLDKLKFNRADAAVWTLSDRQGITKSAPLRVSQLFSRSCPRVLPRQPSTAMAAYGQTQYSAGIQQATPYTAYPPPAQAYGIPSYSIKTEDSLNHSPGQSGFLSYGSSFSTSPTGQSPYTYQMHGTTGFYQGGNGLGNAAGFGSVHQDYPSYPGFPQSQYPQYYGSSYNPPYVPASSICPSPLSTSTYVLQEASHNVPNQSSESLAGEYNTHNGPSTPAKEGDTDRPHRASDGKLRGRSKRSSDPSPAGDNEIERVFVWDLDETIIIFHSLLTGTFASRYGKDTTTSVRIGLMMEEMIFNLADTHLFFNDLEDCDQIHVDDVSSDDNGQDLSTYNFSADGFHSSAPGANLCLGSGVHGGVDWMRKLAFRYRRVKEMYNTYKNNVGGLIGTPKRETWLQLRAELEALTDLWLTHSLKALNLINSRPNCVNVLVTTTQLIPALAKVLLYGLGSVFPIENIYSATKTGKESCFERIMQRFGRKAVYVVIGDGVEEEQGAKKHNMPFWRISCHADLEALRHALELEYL

What follows are compounds tested against Protein phosphatase EYA2 (Homo sapiens) (UniProt O00167) (assay: qHTS Assay for Inhibitors of the Phosphatase Activity of Eya2). Details: recombinant Eya2, OMFP fluorescence dephosphorylation (OMFP is methylfluorescein phosphate); activity, negative = inhibition: at 76.9 µM (top of the series) unless noted.
Outline: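 Eya2 (0.2 uM) preincubated 10 min at ambient with compound, then OMFP substrate added at 50 uM; 10 min reaction in 50 mM HEPES pH 7.5, 50 mM NaCl, 5 uM MgCl2, 0.05% BSA, 1 mM DTT. Fluorescence read at Ex 485/Em 525 nm.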
% is scaled to controls: 0 for no effect and ±100 for the full control effect; potency is read from the fitted curve at half-maximal effect.

SMILES | Potency | activity, negative = inhibition
CC(C)(C)OC(=O)NCCCCCNC(=O)c1[nH]cnc1C(=O)N[C@@H](Cc1ccccc1)C(=O)OCc1ccccc1 | inconclusive: 447 µM [inhibitor, single point] | –
COc1cc(/C=N/NC(=O)c2cncc(Br)c2)cc([N+](=O)[O-])c1O | inconclusive: 56.2 µM [inhibitor, single point] | –
COc1ccc(NC(=O)/C(C#N)=C\c2ccc(Br)o2)cc1 | inconclusive: 20 µM [inhibitor, single point] | –
COc1ccccc1CNS(=O)(=O)c1cc(C)ccc1OC | inactive | –
CCOc1ccc(CNC(=O)CS(=O)(=O)Cc2nc(-c3ccc(OC)cc3)oc2C)cc1 | inconclusive: 39.8 µM [inhibitor, partial curve, poor fit] | –
CN(C)/C=C1/C=C(C=O)OC1=O | inconclusive: 200 µM [inhibitor, partial curve, poor fit] | –
CC(C)Cc1ccc(S(=O)(=O)N2CCN(c3ccccn3)CC2)cc1 | inconclusive: 22.4 µM [inhibitor, single point] | –
CCN(CC)S(=O)(=O)c1ccc(OC)c(NC(=O)c2cc([N+](=O)[O-])ccc2Cl)c1 | inconclusive: 15.8 µM [inhibitor, partial curve, poor fit] | –
CC(C)n1c(O)c(/C=C2\C=NN=C2c2ccccc2)sc1=S | inconclusive: 100 µM [inhibitor, single point] | –
CCOCCc1c(O)nc(SCC(=O)N2CCOCC2)[nH]c1=O | inconclusive: 50.1 µM [inhibitor, single point] | –
CCC1(C)Cc2ccccc2-c2nc3n(c(=O)c21)CCS3 (stereo not given) | inactive | –
Cc1nnc(-c2ccccc2)c(=O)n1/N=C/c1c(O)ccc2ccccc12 | – | inconclusive: 104% [activator]
O=c1nccc(SCc2ccc(Cl)cc2Cl)[nH]1 | inconclusive: 89.1 µM [inhibitor, single point] | –
Cc1ccc(C(=O)NC(=S)Nc2ccc(CN3CCOCC3)cc2)cc1 | inactive | –
CCN(CC)CCNc1nc(-c2cccs2)c(CC(=O)O)s1 | inconclusive: 100 µM [inhibitor, single point] | –
CCOc1ccccc1OCCn1nnc2ccccc21 | inactive | –
COc1ccc(-n2cccc2/C=C2/NC(=O)N(c3cccc(Cl)c3)C2=O)cc1 | inactive | –
CSCCC(NC(=O)C1CCC(C)CC1)C(=O)NCCN1CCC(C)CC1 (stereo not given) | inconclusive: 100 µM [inhibitor, single point] | –
COC(=O)CSc1nc2ccccc2o1 | inactive | –
COc1ccc(OC)c(NC(=O)NNC(=O)c2cc3occc3[nH]2)c1 | inconclusive: 22.4 µM [inhibitor, single point] | –

3 compounds from above, ordered by molecular weight, ascending.
SMILES | Potency | activity, negative = inhibition
CCOCCc1c(O)nc(SCC(=O)N2CCOCC2)[nH]c1=O | inconclusive: 50.1 µM [inhibitor, single point] | –
CSCCC(NC(=O)C1CCC(C)CC1)C(=O)NCCN1CCC(C)CC1 (stereo not given) | inconclusive: 100 µM [inhibitor, single point] | –
CC(C)(C)OC(=O)NCCCCCNC(=O)c1[nH]cnc1C(=O)N[C@@H](Cc1ccccc1)C(=O)OCc1ccccc1 | inconclusive: 447 µM [inhibitor, single point] | –
